Where a name gives a salt, the structure may show the parent alone. The list shows a part of the results. This data set is noisy: repeats of one test often differ as much as different tests do.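 In a drug-repurposing library screen, luminescence reads luciferase driven by eight TEAD-binding elements, stably integrated into human kidney-derived cells. Compounds scoring over five robust Z scores above the plate mean are called hits.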
Test system: HEK293A TEAD-LUC reporter
Assay: TEAD-luciferase reporter activity (YAP activation), robust Z score vs plate; higher = stronger YAP/TEAD activation
Details: 24 h

Row | Compound | TEAD-luciferase reporter activity (compound concentration: 200 nM) | TEAD-luciferase reporter activity (compound concentration: 2 uM) | TEAD-luciferase reporter activity (compound concentration: 10 uM)
1 | c1ccc(-c2ncn(CCCCN3CCCC3)c2-c2ccncc2)cc1 | inactive: -1.61 | inactive: -1.82 | inactive: -1.5
2 | CC[C@H](C)[C@H](NC(=O)[C@H](CCCN=C(N)N)NC(=O)[C@H](C)NC(=O)[C@H](Cc1cnc[nH]1)NC(=O)[C@@H]1CCCN1C(=O)[C@H](Cc1cnc[nH]1)NC(=O)[C@@H]1CCCN1C(=O)[C@@H]1CCCN1C(=O)[C@@H]1CCCN1C(C)=O)C(=O)N[C@@H](CCCCN)C(N)=O | inactive: -1.33 | inactive: -1.01 | active: 6.41
3 | CCCCCCCO[C@@H]1[C@H]2OC(C)(C)O[C@H]2O[C@@H]1CCNCc1ccccn1 | inactive: -0.881 | inactive: -0.632 | inactive: 4.59
4 | CCN1/C(=C/C=C/C=C/c2sc3ccccc3[n+]2CC)Sc2ccccc21 | inactive: -0.473 | inactive: -1.43 | active: 7.57
5 | CC#CC1(OCC(COCC(C)C)N2CCCC2)CCCCC1 (centres undefined) | inactive: -1.15 | inactive: -0.0998 | inactive: 3.52
6 | CC[C@]1(C)C[C@@H](OC(=O)CSc2nnc(N)[nH]2)[C@]2(C)[C@H](C)CC[C@]3(CCC(=O)[C@H]32)[C@@H](C)[C@@H]1O [azamulin] | inactive: 3.17 | inactive: -1.08 | inactive: 0.336
7 | CCCC(=O)N(C)Cc1c(-c2ccc(Cl)cc2)nc2ccccn12 [Saripidem] | inactive: 2.86 | inactive: -0.371 | inactive: -0.938
8 | COc1cccc(C(=O)OC2CCN(C)CC2)c1 | inactive: -0.725 | inactive: 0.465 | inactive: 2.24
9 | CN1C(=O)C[C@@H](C(=O)N[C@@H](Cc2cnc[nH]2)C(=O)N2CCC[C@H]2C(N)=O)NC1=O [taltirelin hydrate ODT] | inactive: -1.09 | inactive: 0.56 | inactive: 1.78
10 | FC(F)C(F)(F)CBr | inactive: 0.603 | inactive: 1.67 | inactive: -0.752
11 | COc1ccc(S(=O)(=O)N(Cc2cccnc2)[C@@H](C(=O)NO)C(C)C)cc1 | inactive: -1.26 | inactive: 0.865 | inactive: -1.03
12 | CNC(=O)c1cc(COc2nnc(Nc3ccc(Cl)cc3)c3ccoc23)ccn1 [telatinib] | inactive: -0.667 | inactive: -2.06 | inactive: 0.0736
13 | CCn1c(O)nnc1-c1ccc(Cl)cc1 | inactive: -1.27 | inactive: -0.291 | inactive: 0.472
14 | O=C(NC1CC1)C1CCN(c2nc3ncccc3o2)CC1 | inactive: -0.888 |  | inactive: -0.0641
15 | CCCC(CCC)C(=O)NCC(N)=O [Valrocemide] | inactive: -0.666 | inactive: 3.09 | inactive: -2.14
16 | Cc1c(N2CCc3ccccc3C2)c(N)cc2c(=O)c(C(=O)O)cn(C3CC3)c12 | inactive: -0.0347 | inactive: -0.649 | inactive: -0.456
17 | Cc1ccnc(NS(=O)(=O)c2ccc(N)cc2)n1 | inactive: -0.757 | inactive: 0.582 | inactive: -1.17
18 | O=C(O)c1ccccc1C1c2ccc(O)cc2Oc2cc(O)ccc21 [Fluorescin] | inactive: -1.31 | inactive: -0.891 | inactive: -1.12
19 | COc1ccc(-c2c(Cl)ncn2-c2ccc(S(N)(=O)=O)cc2)cc1F [Cimicoxib] | inactive: 1.31 | inactive: -0.658 | inactive: 0.859
20 | [O]=[Mg] [Magnesium oxide] | inactive: -0.683 | inactive: -0.285 | inactive: 0.777
21 | CC(=O)[C@]1(N)Cc2c(O)c3c(c(O)c2[C@@H](O[C@H]2C[C@H](O)[C@H](O)CO2)C1)C(=O)c1ccccc1C3=O [Amrubicin] | inactive: 0.0322 | inactive: 0.149 | active: 11.7
22 | NC(=O)c1cnc2[nH]ccc2c1N[C@H]1[C@@H]2CC3C[C@H]1C[C@@](O)(C3)C2 [peficitinib] | inactive: 0.999 | active: 14.5 | inactive: 4.9
23 | CCN(CC)CCOC(=O)C(c1ccccc1)c1ccccc1 | inactive: -0.535 | inactive: 0.76 | inactive: -0.704
24 | O=C(O)Cc1csc(-c2ccc(Cl)cc2)n1 | inactive: -0.723 | inactive: -1.3 | inactive: -0.0199
25 | CC(=O)NN1CC(C)(C)C(=O)c2ccc(S(=O)(=O)C(F)(F)F)cc21 | inactive: 2.23 | inactive: -1.32 | inactive: -1.58
26 | CC/C=C\C/C=C\C/C=C\C/C=C\C/C=C\C/C=C\CCC(=O)OCCCNC(=O)[C@H](O)C(C)(C)CO | inactive: -1.54 | inactive: 1.05 | inactive: 0.312
27 | Cn1nc(O[C@@H]2c3cc(S(=O)(=O)c4cccc(O)c4)ccc3OC(C)(C)[C@@]2(C)O)ccc1=O | inactive: -0.443 | inactive: -0.0567 | inactive: -1.71

Row | Compound | TEAD-luciferase reporter activity (compound concentration: 200 nM) | TEAD-luciferase reporter activity (compound concentration: 2 uM) | TEAD-luciferase reporter activity (compound concentration: 10 uM)
28 | CNC(=S)C1(c2cccc(C)n2)CCCS1 (centres undefined) | inactive: -0.898 | inactive: -0.516 | inactive: 0.417
29 | N=C(N)c1ccc(N2CCN(C3CCN(CC(=O)O)CC3)CC2)cc1 | inactive: -0.894 | inactive: -0.274 | inactive: -0.857
30 | CCOC(=O)CC1(c2ccc(OCc3cccc(-c4ccc(OCC5CCS(=O)(=O)CC5)cc4Cl)c3)cc2)COC1 | inactive: -0.863 | inactive: -0.783 | inactive: -1.01
31 | O=C(OCCN1CCN(c2cccc(C(F)(F)F)c2)CC1)c1ccccc1Nc1ccnc2cc(C(F)(F)F)ccc12 [antrafenine] | inactive: 0.12 | inactive: -0.525 | inactive: -1.75
32 | CN/C(=C/[N+](=O)[O-])NCCSCc1ccc(CN(C)C)o1 [ranitidine bismuth citrate] | inactive: -0.293 | inactive: -1.5 | inactive: 2.23
33 | COc1ccnc(CS(=O)c2nc3cc(-n4cccc4)ccc3[nH]2)c1C (centres undefined) [ilaprazole] | inactive: -0.395 | inactive: -0.717 | inactive: 0.465
34 | C1C[S][Bi-]2([S]1)[S]CC[S]2 [Bismuth ethanedithiol] | inactive: 0.0392 | inactive: 2.31 | inactive: 1.33
35 | CN1C/C=C/CCOc2cccc(c2)-c2ccnc(n2)Nc2cccc(c2)C1 | inactive: -1.07 | inactive: -3.74 | inactive: -2
36 | Cc1cccc(N(C)C(=S)Oc2ccc3c(c2)C2CCC3C2)c1 (centres undefined) [tolciclate] | inactive: -1.5 | inactive: 1.73 | inactive: -0.904
37 | O=C(NOCCO)c1cc(CN2OCCCC2=O)c(F)c(F)c1Nc1ccc(I)cc1F | inactive: 0.122 | inactive: 2.4 | inactive: -0.533
38 | CN(C)C(=O)c1c[nH]c2cccnc12 | active: 8.64 |  | inactive: -3.03
39 | CC(C)OCCN(C(=O)CCl)c1ccc(C(=O)N2CCN(CCc3ccc(Cl)cc3)CC2)cc1 | inactive: -1.12 | inactive: -1.36 | inactive: 0.773
40 | CCCCC(CC)CN1CN(CC(CC)CCCC)CC(C)(N)C1 (centres undefined) | inactive: 0.039 | inactive: -0.68 | inactive: 0.245
41 | CC(=O)N1CCN(NC(=O)c2ccc(F)cc2)CC1 | inactive: -0.817 | inactive: -0.49 | inactive: -0.45
42 | O=C(NC(Cc1c[nH]c2ccccc12)C(=O)O)c1ccc(Cl)cc1 (centres undefined) [benzotript] | inactive: -1.86 | inactive: -1.12 | inactive: -1.27
43 | CC(C)[C@H](NC(=O)c1ccc2ccccc2n1)C(=O)N[C@@H](Cc1ccccc1)[C@H](O)CN1CC[C@@H](OCc2ccncc2)C[C@H]1C(=O)NC(C)(C)C | inactive: -0.526 | inactive: 0.0697 | inactive: -0.443
44 | CCCCCCCCCCCCCCN(C(=O)CCCCCCCCCCC)[C@@H]1O[C@H](CO)[C@@H](O)[C@H](O)[C@H]1NC(=O)CN | inactive: -1.41 | inactive: -2.17 | inactive: -0.413
45 | OB(O)O | inactive: -1.26 | inactive: 1.23 | inactive: 0.493
46 | CCCc1c(O)ccc2c(=O)cc(C(=O)O)oc12 | inactive: -2.38 | inactive: 0.22 | inactive: -0.452
47 | O=C1CC2(CCCC2)CC(=O)N1CCCCN1CCN(c2nsc3ccccc23)CC1 [Tiospirone hydrochloride] | inactive: -0.0973 | inactive: 0.388 | inactive: 0.442
48 | CC(O)CC(=O)[O-] (stereo not drawn) [beta-Hydroxybutyrate] | inactive: -0.512 | inactive: -1.97 | inactive: 0.141
49 | CN1C(=O)OC(C)(C)C1=O [Trimethadione] | inactive: -1.8 | inactive: -0.246 | inactive: -1.32
50 | Cc1cn([C@H]2C[C@H](O)[C@]3(CO)C[C@H]23)c(=O)[nH]c1=O [North-methanocarbathymidine] | inactive: -1.07 | inactive: -0.594 | inactive: 1.45
51 | C=C1/C(=C\C=C2/CCC[C@]3(C)[C@@H]([C@H](C)CCCC(C)(C)O)CC[C@@H]23)C[C@@H](O)[C@@H](OCCCO)[C@@H]1O [Edirol] | inactive: 0.487 | inactive: 0.805 | inactive: 0.0903
52 | Nc1nc(N)c2ncn(CC(CF)OCP(=O)(O)O)c2n1 (centres undefined) | inactive: 0.527 | inactive: -0.878 | inactive: -0.258
53 | O.O=[Si]=O.O=[Si]=O.O=[Si]=O.O=[Si]=O.[O]=[Mg].[O]=[Mg].[O]=[Mg] | inactive: -1.4 |  | inactive: 0.11
54 | CC/C(=C(/CC)c1ccc(O)cc1)c1ccc(O)cc1 [Diethylstilbestrol] | inactive: 0.862 | inactive: 1.37 | inactive: -0.387

Reference: the supplement of paper PMC10735217
